# PubChem BioAssay AID602346 (Broad Institute, 2012)
# Screen size: about 340,000 compounds; about 1,200 (0.35%) were called active. Inconclusive results, whose numbers are uncertain, are shown with a selection of clear calls. Rule as the data show it: active = inhibition above about 50% (passing the limit was not always enough); inconclusive = no clear call, values can overlap the other calls; inactive = below about 31%.
# Assay: blockers of Vif multimerization in cells – imaging, HEK293T, single point, primary screen (AID 602346)
# Details: Vif self-association by quenched fluorescence, 24 h, at 7.49 µM, active compounds read high
row,SMILES,inhibition
1,CC(C)[C@H](N)C(=O)OCCOCn1cnc2c(=O)[nH]c(N)nc21,inconclusive: 26.5%
2,COc1ccc(NC(=O)CSc2nnc(-c3cccnc3)n2C)cc1,inactive: -4.76%
3,Cc1ccc(OCC(=O)NCCNC(=O)c2ccc(C)nc2)cc1,inconclusive: 39.1%
4,COc1ccc(Br)cc1/C=N/NC(=O)c1nc(-c2ccccc2)n2c1CCCCC2,inconclusive: 46.7%
5,Cc1noc(C)c1CSCC(=O)NC1=NCCS1,inconclusive: 39.2%
6,COc1ccc(OC)c(S(=O)(=O)N/N=C(/C)c2ccc3c(c2)OCO3)c1,inconclusive: 44.8%
7,COC(=O)c1cc(NC(=O)CN(C)C2CCS(=O)(=O)C2)cc(C(=O)OC)c1 (centres undefined),inconclusive: 44%
8,COc1cccc2cc(C(=O)Nc3cc(Cl)ccc3N3CCOCC3)c(=O)oc12,inactive: 1.18%
9,CC1CCC(NC(=O)c2nn(C)c3c2CSc2ccccc2-3)CC1 (centres undefined),inconclusive: 41.4%
10,CC(C)CC1(C)NC(=O)N(CC(=O)Nc2ccc3c(c2)OCCO3)C1=O (centres undefined),inconclusive: 44.8%
11,O=C(c1cccnc1)C1CCCN(Cc2nc(Cc3ccccc3F)no2)C1 (centres undefined),inconclusive: 36.1%
12,CCc1cc(CNC(=O)C2CCC(=O)N(Cc3ccc(Cl)cc3)C2)on1 (centres undefined),inactive: 4.3%
13,COC(=O)Cc1c[nH]c2cccc(OCC(O)CN(Cc3ccccc3)C(C)C)c12 (centres undefined),inconclusive: 41.4%
14,Cc1cccc(C(=O)N[C@H](C(=O)Nc2nc3ccccc3[nH]2)C(C)C)c1,active: 78.5%
15,CC1CN(S(=O)(=O)c2ccc(C(=O)NCCCn3ccnc3)cc2)CC(C)O1 (centres undefined),active: 52.2%
16,Cc1nn(CCC#N)c(NC(=O)c2ccc(Cl)cc2Cl)c1P(=O)(Nc1ccc([N+](=O)[O-])cc1)N1CCOCC1 (centres undefined),inconclusive: 38.8%
17,COc1ccc(C(=O)N2CCC(C)(C(=O)O)C2)cc1OC (centres undefined),inconclusive: 23.9%
18,CCN(CC(=O)Nc1c(F)cccc1F)C(=O)C1COc2ccccc2O1 (centres undefined),inconclusive: 31.3%
19,c1ccc(-c2nc(-c3nccc4ccccc34)oc2-c2ccccc2)cc1,inconclusive: 27.6%
20,COc1ccccc1NC(=O)N1c2ccc(F)cc2CCC1C (centres undefined),inconclusive: 26.6%
21,Cc1cc2ccccc2n1CCNC(=O)C1CCCC1,inactive: -7.23%
22,COc1ccc(-c2cc(C(=O)Nc3cnn(Cc4ccccc4C)c3)no2)cc1OC,active: 86.2%
23,COc1cc2[nH]c(=S)n(Cc3ccc(F)cc3)c(=O)c2cc1OC,inconclusive: 29%
24,O=[N+]([O-])c1cccc(N/N=C/c2cccc(O)c2O)c1,active: 63.8%

# From no. 10 as far as 11, copied from above:
row,SMILES,inhibition
10,CC(C)CC1(C)NC(=O)N(CC(=O)Nc2ccc3c(c2)OCCO3)C1=O (centres undefined),inconclusive: 44.8%
11,O=C(c1cccnc1)C1CCCN(Cc2nc(Cc3ccccc3F)no2)C1 (centres undefined),inconclusive: 36.1%
